38 targets from the supplement of paper PMC10849652 can be followed below.

By UniProt entry, the sequences of proteins in these tests, tags left out. Where a name states a change or a piece, a line headed by the entry shows the natural chain unless it says otherwise.
UniProt Q9UIM3: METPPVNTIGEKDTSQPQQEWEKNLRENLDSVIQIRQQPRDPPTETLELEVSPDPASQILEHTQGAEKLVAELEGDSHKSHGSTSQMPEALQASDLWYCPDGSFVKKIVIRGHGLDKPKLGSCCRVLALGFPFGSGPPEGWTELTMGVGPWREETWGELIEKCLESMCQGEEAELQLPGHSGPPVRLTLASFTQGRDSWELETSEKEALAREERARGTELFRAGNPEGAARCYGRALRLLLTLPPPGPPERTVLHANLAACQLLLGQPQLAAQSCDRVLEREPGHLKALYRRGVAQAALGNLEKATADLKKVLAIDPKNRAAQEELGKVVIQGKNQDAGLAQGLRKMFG
UniProt Q9Y5Y0: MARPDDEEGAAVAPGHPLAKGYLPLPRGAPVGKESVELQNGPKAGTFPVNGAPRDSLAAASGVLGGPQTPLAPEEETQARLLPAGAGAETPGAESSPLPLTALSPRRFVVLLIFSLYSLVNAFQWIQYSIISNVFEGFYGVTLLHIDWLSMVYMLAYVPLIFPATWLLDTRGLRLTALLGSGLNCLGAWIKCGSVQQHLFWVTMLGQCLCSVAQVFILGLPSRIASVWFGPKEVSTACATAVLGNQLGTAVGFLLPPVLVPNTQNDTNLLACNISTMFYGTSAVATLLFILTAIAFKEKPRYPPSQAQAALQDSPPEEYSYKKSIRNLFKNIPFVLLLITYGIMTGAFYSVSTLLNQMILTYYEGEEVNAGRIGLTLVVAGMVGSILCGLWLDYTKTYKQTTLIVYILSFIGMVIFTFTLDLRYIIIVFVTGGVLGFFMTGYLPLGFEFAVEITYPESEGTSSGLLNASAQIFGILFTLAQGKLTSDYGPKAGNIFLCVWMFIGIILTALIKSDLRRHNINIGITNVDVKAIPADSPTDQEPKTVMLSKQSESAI
UniProt P07954: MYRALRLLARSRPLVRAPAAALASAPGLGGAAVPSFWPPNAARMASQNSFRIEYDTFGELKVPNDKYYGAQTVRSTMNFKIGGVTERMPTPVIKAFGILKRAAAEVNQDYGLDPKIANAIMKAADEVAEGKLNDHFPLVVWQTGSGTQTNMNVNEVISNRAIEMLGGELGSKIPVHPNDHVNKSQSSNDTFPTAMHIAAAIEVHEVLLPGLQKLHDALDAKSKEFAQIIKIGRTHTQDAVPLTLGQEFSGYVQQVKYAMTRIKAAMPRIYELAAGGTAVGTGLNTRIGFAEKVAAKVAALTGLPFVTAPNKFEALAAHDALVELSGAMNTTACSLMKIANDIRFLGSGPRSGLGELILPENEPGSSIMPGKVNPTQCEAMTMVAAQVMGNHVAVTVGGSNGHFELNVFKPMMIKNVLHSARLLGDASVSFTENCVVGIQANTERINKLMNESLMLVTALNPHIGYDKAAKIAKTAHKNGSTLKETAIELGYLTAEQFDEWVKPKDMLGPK
UniProt Q13045: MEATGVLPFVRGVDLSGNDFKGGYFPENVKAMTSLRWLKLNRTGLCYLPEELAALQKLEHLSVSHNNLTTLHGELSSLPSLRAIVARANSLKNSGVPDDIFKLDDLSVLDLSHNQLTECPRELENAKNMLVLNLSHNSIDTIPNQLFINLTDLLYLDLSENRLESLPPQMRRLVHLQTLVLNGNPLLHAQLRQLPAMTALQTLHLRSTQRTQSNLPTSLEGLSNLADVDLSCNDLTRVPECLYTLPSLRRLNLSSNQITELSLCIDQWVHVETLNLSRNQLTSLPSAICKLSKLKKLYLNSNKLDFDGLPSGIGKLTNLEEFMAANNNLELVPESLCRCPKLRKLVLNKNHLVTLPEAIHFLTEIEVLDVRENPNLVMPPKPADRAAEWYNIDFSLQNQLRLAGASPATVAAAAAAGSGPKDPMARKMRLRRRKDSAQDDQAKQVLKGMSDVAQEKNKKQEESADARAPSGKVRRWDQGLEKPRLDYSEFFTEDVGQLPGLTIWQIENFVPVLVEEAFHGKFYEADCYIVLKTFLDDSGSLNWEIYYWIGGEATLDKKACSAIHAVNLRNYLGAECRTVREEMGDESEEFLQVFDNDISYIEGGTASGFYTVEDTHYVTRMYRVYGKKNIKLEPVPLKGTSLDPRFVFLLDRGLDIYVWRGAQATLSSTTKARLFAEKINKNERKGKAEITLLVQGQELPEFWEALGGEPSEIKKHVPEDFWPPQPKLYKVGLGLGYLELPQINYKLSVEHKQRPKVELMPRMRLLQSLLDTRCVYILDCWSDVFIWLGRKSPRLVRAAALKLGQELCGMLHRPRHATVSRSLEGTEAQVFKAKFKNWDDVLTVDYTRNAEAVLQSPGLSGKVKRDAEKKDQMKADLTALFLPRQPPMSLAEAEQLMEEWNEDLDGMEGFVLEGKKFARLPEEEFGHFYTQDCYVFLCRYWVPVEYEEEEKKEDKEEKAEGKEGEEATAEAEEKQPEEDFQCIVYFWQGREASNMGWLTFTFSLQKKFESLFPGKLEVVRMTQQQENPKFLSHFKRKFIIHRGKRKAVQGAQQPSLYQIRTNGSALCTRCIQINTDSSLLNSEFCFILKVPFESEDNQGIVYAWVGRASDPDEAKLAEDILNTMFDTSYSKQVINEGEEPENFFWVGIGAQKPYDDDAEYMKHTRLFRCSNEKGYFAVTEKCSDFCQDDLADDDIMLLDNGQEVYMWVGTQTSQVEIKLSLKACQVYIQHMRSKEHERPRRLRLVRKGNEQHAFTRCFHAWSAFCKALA
UniProt Q52LJ0: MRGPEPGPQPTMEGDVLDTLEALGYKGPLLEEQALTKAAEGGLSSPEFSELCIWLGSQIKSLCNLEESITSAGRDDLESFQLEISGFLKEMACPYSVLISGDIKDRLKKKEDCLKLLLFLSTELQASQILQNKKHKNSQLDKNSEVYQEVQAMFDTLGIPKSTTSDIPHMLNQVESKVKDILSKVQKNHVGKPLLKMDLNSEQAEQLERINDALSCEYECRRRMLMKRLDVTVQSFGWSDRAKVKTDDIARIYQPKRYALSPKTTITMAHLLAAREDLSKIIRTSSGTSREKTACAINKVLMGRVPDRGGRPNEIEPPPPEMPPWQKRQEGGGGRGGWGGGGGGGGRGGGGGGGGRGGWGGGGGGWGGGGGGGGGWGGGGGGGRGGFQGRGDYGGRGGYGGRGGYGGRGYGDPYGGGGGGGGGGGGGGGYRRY
UniProt Q96IG2: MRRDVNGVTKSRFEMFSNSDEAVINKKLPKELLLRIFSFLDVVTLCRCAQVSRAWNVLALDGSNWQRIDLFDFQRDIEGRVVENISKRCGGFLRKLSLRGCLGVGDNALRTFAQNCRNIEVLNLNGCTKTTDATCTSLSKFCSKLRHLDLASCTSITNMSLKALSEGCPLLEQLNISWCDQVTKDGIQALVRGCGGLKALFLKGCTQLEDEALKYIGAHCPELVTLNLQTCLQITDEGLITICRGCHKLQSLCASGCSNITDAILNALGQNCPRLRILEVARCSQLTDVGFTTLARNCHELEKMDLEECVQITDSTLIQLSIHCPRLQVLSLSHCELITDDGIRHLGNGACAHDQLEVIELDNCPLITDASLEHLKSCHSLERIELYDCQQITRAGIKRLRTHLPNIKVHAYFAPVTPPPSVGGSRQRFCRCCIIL
UniProt Q8N0W3: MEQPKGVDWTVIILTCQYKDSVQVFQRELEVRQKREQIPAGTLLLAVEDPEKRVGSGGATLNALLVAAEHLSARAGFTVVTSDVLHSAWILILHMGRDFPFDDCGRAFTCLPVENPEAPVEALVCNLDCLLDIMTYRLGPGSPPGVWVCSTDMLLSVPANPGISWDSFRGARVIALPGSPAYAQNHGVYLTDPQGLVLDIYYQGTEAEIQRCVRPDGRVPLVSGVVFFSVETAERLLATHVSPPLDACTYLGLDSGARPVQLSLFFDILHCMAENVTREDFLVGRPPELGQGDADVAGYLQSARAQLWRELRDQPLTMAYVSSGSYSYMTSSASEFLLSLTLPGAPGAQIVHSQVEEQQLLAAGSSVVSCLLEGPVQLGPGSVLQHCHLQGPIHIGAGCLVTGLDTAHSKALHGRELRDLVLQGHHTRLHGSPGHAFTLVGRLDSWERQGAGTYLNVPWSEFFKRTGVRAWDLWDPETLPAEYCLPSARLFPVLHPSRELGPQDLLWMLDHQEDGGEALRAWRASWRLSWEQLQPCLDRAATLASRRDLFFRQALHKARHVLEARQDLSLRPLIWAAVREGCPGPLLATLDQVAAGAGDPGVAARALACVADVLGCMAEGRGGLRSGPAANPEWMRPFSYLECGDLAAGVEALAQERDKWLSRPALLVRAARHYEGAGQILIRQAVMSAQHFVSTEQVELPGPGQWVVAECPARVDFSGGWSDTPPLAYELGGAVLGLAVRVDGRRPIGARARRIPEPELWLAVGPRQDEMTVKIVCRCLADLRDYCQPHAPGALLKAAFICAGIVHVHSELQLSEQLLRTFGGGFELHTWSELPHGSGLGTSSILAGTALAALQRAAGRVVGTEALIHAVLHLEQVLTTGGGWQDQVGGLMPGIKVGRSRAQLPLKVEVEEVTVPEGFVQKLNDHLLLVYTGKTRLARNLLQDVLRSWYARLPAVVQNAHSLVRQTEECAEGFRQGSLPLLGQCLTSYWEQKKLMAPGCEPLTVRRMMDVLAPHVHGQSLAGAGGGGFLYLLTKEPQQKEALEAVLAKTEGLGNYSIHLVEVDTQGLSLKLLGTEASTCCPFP
UniProt Q9H479: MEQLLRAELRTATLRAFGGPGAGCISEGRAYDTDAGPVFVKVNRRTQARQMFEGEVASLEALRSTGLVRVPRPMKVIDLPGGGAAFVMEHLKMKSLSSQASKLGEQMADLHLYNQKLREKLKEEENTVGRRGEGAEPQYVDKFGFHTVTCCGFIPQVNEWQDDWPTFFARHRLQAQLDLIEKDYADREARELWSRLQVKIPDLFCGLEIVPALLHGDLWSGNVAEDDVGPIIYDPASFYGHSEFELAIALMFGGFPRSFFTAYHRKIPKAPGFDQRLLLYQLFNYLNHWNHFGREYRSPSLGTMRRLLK
UniProt P12318: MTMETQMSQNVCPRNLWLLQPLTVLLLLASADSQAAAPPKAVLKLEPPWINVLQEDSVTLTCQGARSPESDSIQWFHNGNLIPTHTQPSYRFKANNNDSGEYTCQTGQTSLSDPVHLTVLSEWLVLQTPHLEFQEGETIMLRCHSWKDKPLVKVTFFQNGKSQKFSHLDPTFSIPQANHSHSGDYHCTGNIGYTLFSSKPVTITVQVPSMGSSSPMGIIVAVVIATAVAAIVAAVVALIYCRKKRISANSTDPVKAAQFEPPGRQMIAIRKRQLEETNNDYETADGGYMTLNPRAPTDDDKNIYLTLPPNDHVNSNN
UniProt O95302: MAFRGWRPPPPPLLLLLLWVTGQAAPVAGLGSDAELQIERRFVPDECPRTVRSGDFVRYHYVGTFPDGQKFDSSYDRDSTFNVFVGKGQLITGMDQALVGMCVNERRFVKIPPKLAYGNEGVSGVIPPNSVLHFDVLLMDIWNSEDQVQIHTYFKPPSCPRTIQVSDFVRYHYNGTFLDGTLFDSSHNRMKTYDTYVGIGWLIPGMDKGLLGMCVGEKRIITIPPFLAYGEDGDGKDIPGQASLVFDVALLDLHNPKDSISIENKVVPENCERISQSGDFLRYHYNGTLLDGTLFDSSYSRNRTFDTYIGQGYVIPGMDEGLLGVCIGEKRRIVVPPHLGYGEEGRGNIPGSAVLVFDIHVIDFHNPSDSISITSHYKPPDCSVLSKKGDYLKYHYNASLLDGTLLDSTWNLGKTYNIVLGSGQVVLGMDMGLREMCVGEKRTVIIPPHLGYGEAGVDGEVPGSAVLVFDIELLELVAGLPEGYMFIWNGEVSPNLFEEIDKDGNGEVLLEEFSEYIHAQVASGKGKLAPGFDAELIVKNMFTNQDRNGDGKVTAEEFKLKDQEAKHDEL
UniProt Q13451: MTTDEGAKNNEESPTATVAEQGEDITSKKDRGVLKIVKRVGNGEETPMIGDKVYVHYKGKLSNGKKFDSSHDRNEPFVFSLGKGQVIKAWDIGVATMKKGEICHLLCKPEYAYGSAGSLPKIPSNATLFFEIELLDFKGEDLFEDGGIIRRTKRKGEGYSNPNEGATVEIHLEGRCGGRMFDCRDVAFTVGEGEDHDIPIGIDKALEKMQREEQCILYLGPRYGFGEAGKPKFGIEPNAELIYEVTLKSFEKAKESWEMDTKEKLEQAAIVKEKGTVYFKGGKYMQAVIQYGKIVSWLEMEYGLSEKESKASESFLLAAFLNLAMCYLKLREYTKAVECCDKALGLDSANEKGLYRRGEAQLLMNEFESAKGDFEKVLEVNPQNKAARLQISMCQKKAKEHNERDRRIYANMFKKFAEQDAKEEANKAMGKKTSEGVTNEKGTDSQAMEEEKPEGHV
UniProt Q6P4F2: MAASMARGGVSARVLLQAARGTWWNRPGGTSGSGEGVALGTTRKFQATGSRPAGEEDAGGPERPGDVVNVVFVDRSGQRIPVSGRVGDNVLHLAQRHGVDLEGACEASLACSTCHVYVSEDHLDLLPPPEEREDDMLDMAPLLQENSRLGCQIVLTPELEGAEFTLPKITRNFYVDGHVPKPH
UniProt Q9Y421: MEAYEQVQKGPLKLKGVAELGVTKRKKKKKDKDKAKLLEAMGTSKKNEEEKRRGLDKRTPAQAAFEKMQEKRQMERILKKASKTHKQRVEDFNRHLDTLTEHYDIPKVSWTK

This is one part of the list.

Compound in the test: CC[C@H](C)N1C=C(C2=C(C=C(C=C21)C3=CN=C(C=C3)N4CCNCC4)C(=O)NCC5=C(C=C(NC5=O)C)C)C
Nature of the test: log2 fold change, soluble protein after heating vs DMSO (PISA); higher = thermal stabilisation; K562 cells, 10 uM, 30 min; active = over 0.2 and 3.5 SD of the protein, either way, in both replicates (recomputed). The method, boiled down:
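K562 cells at 2×10^6 cells/mL were given 10 μM compound for 30 min. Aliquots then went through 3 min of heating across 48°C-58°C, were pooled, and were extracted in PBS with 0.5% NP-40 at 4°C, and the supernatant after 21,000xg for 90 min was quantified by TMTpro 16plex LC-MS/MS with channel sums equalised. Thermal stability relative to control samples, from duplicates, is given as log2 fold change.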
For the target FDX1 (UniProt P10109), the log2 fold change is inactive: -0.049. The result for FBXL12 (UniProt Q9NXK8) reads inactive: 0.019; that for FKBPL (UniProt Q9UIM3), inactive: 0.017. For FCGR2C (UniProt P31995), the log2 fold change is inactive: -0.05. Consider FANCB (UniProt Q8NB91), for which the log2 fold change was inactive: -0.045.

Regarding FIP1L1 (UniProt Q6UN15), the log2 fold change is inactive: -0.017. Consider FLVCR1 (UniProt Q9Y5Y0), for which the log2 fold change was inactive: -0.009. Consider FAM49B (UniProt Q9NUQ9), for which the log2 fold change is inactive: 0.001. As for FAM210A (UniProt Q96ND0), the figure is inactive: -0.044. The result for FBXO30 (UniProt Q8TB52) reads inactive: 0.053; that for FKBP2 (UniProt P26885), inactive: -0.012. The result for FKBP15 (UniProt Q5T1M5) reads inactive: 0.044; that for FAR1 (UniProt Q8WVX9), inactive: 0.017; that for FH (UniProt P07954), inactive: 0.021. Take FLII (UniProt Q13045): the log2 fold change is inactive: 0.048. As for FNBP4 isoform 2 (UniProt Q8N3X1), the figure is inactive: -0.059; as for FAM98B (UniProt Q52LJ0), inactive: 0.043; as for FBXL20 (UniProt Q96IG2), inactive: 0.047. The result for FBXL18 isoform 4 (UniProt Q96ME1) reads inactive: 0.025. Turning to FLYWCH2 (UniProt Q96CP2), the log2 fold change is inactive: -0.013.

As to FAM76B (UniProt Q5HYJ3), the log2 fold change is inactive: -0.097.

Turning to FASN (UniProt P49327), the log2 fold change is inactive: 0.032. The result for FKBP1A (UniProt P62942) reads inactive: 0.054; that for FBLL1 (UniProt A6NHQ2), inactive: -0.037.

For the target FBXO5 (UniProt Q9UKT4), the log2 fold change is inactive: -0.004.

Turning to FARSB (UniProt Q9NSD9), the log2 fold change is inactive: 0.033. As for FLOT1 (UniProt O75955), the figure is inactive: -0.037. FCSK isoform 2 (UniProt Q8N0W3): the log2 fold change was inactive: -0.007. As for FBXO22 (UniProt Q8NEZ5), the figure is inactive: 0.072; as for FN3K (UniProt Q9H479), inactive: -0.008. The result for FCGR2A (UniProt P12318) reads inactive: -0.099; that for FN3KRP (UniProt Q9HA64), inactive: -0.014; that for FAM98A (UniProt Q8NCA5), inactive: 0.039. As for FKBP9 (UniProt O95302), the log2 fold change is inactive: 0.023. With FAU (UniProt P62861), the log2 fold change was inactive: -0.001. FKBP5 (UniProt Q13451): the log2 fold change was inactive: 0.154. The result for FDX2 (UniProt Q6P4F2) reads inactive: -0.075; that for FAM32A (UniProt Q9Y421), inactive: -0.172.
